Assay results as given in the supplement of paper PMC10849652.
This is one part of the list.

Columns and labels:
Test in all cases: log2 fold change, soluble protein after heating vs DMSO (PISA); higher = thermal stabilisation; K562 lysate, 10 uM; active = over 0.2 and 3.5 SD of the protein, either way, in both replicates (recomputed)
[1] = compound: C1=CC=C(C=C1)[C@H](COC2=CC3=C(C=C2)NC(=O)N3)NC(=O)C4=CC=CN(C4=O)CC5=CC(=C(C=C5)F)F
Outline: (§1)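 K562 pellets were dounce-homogenised in PBS pH 7.4 containing 1 mM MgCl2, and the crude extract, at 1 mg/mL protein, was exposed to 10 μM compound for 30 min. Aliquots were heated for 3 min across 48°C-58°C, pooled, brought to 0.5% NP-40 at 4°C and spun at 21,000xg for 90 min, with the supernatant taken as soluble protein. TMTpro 16plex LC-MS/MS with equalised channel sums quantified that protein. Values are log-two fold changes in thermal stability relative to solvent controls, taken from duplicates.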

[2] = compound: CC1=C(SC2=C1C(=N[C@H](C3=NN=C(N32)C)CC(=O)N)C4=CC=C(C=C4)Cl)C
Outline: as §1

[3] = compound: CC1=C2C(=CC=C1)N=C(N(C2=O)C3=CC=CC=C3C)CN4C=NC5=C(N=CN=C54)N
Outline: as §1

[4] = compound: Cc1sc2c(c1C)C(c1ccc(Cl)cc1)=N[C@@H](CC(=O)OC(C)(C)C)c1nnc(C)n1-2
Outline: as §1

[5] = compound: c1ccc([C@@H]2C[C@H]2NC2CCNCC2)cc1
Outline: as §1

erlotinib = compound: C#Cc1cccc(Nc2ncnc3cc(OCCOC)c(OCCOC)cc23)c1 [erlotinib]
Outline: as §1

[6] = compound: C/C(=N\NC(=O)C1=CC(=CC=C1)S(=O)(=O)N2CCOCC2)/C3=C(C=CC(=C3)Cl)O
Outline: as §1

[7] = compound: C1=CC(=CC=C1C2=NC3=C(N2)C=C(C=C3)C(=O)N)OC4=CC=C(C=C4)Cl
Outline: as §1

[8] = compound: C1=CC2=C(C=CC(=C2)/C=C\3/C(=O)NC(=NCC4=CC=CS4)S3)N=C1
Outline: as §1

[9] = compound: C1=CC=C(C=C1)C2=NC(=C(N2)C3=CC=NC=C3)C4=CC(=C(C=C4)Cl)O
Outline: as §1

[10] = compound: C1=CC=C2C(=C1)C3=NNC4=CC=CC(=C43)C2=O
Outline: as §1

[11] = compound: C1CCN(C1)C(=O)NC2=CC=CC(=C2)NC3=NC=C(C(=N3)NCCC4=CN=CN4)Br
Outline: as §1

[12] = compound: C1CN(CCC1(CC2=CC=C(C=C2)Cl)N)C3=NC=NC4=C3C=CN4
Outline: as §1

IRAK-1-4 Inhibitor I = compound: C1COCCN1CCN2C3=CC=CC=C3N=C2NC(=O)C4=CC(=CC=C4)[N+](=O)[O-] [IRAK-1-4 Inhibitor I]
Outline: as §1

ralimetinib = compound: CC(C)(C)Cn1c(N)nc2ccc(-c3[nH]c(C(C)(C)C)nc3-c3ccc(F)cc3)nc21 [ralimetinib]
Outline: as §1

[13] = compound: CC(C)(O)CC(=O)NCCn1ccc2ncnc(Nc3ccc(Oc4cccc(C(F)(F)F)c4)c(Cl)c3)c21
Outline: as §1

[14] = compound: CC(C)C1=C2N=C(C=C(N2N=C1)NCC3=CC=CC=C3)NCCCCCCN
Outline: as §1

[15] = compound: CC1=C(C=C(C=C1)NC(=O)C2=CC(=CC=C2)C(C)(C)C#N)NC3=CC4=C(C=C3)N=CN(C4=O)C
Outline: as §1

[16] = compound: CC1=C(C=C(C=C1)NC(=O)C2=CC(=CC=C2)N(C)C)NC(=O)C3=CC=C(C=C3)O
Outline: as §1

vemurafenib = compound: CCCS(=O)(=O)Nc1ccc(F)c(C(=O)c2c[nH]c3ncc(-c4ccc(Cl)cc4)cc23)c1F [vemurafenib]
Outline: as §1

[17] = compound: CC[C@@H]1C(=O)N(C)c2cnc(Nc3ccc(C(=O)NC4CCN(C)CC4)cc3OC)nc2N1C1CCCC1
Outline: as §1

[18] = compound: CCn1c(C(=O)N(C2CC2)C2CC2)cc2c3c(ncn3C)c(Nc3cc(C)n(C)n3)nc21
Outline: as §1

sotrastaurin = compound: CN1CCN(c2nc(C3=C(c4c[nH]c5ccccc45)C(=O)NC3=O)c3ccccc3n2)CC1 [sotrastaurin]
Outline: as §1

Tubastatin A = compound: CN1CCc2c(c3ccccc3n2Cc2ccc(C(=O)NO)cc2)C1 [Tubastatin A]
Outline: as §1

[19] = compound: CNC(=O)C1=CC=CC=C1NC2=NC(=NC=C2Cl)NC3=C(C=C(C=C3)N4CCOCC4)OC
Outline: as §1

defactinib = compound: CNC(=O)c1ccc(Nc2ncc(C(F)(F)F)c(NCc3nccnc3N(C)S(C)(=O)=O)n2)cc1 [defactinib]
Outline: as §1

encorafenib = compound: COC(=O)N[C@@H](C)CNc1nccc(-c2cn(C(C)C)nc2-c2cc(Cl)cc(NS(C)(=O)=O)c2F)n1 [encorafenib]
Outline: as §1

[20] = compound: COC(=O)[C@H](CCSC)NC(=O)C1=C(C=C(C=C1)NC[C@H](CS)N)C2=CC=CC=C2
Outline: as §1

crizotinib = compound: C[C@@H](Oc1cc(-c2cnn(C3CCNCC3)c2)cnc1N)c1c(Cl)ccc(F)c1Cl [crizotinib]
Outline: as §1

tozasertib = compound: Cc1cc(Nc2cc(N3CCN(C)CC3)nc(Sc3ccc(NC(=O)C4CC4)cc3)n2)n[nH]1 [tozasertib]
Outline: as §1

doramapimod = compound: Cc1ccc(-n2nc(C(C)(C)C)cc2NC(=O)Nc2ccc(OCCN3CCOCC3)c3ccccc23)cc1 [doramapimod]
Outline: as §1

quisinostat = compound: Cn1cc(CNCC2CCN(c3ncc(C(=O)NO)cn3)CC2)c2ccccc21 [quisinostat]
Outline: as §1

[21] = compound: NC(=O)Nc1cc(-c2cccc(F)c2)sc1C(=O)N[C@H]1CCCNC1
Outline: as §1

[22] = compound: NC1(c2ccc(-c3nc4ccn5c(=O)[nH]nc5c4cc3-c3ccccc3)cc2)CCC1
Outline: as §1

[23] = compound: NCC(=O)Nc1ccc(-n2nc(C(F)(F)F)cc2-c2ccc3c(ccc4ccccc43)c2)cc1
Outline: as §1

vorinostat = compound: O=C(CCCCCCC(=O)Nc1ccccc1)NO [vorinostat]
Outline: as §1

silmitasertib = compound: O=C(O)c1ccc2c(c1)nc(Nc1cccc(Cl)c1)c1ccncc12 [silmitasertib]
Outline: as §1

[24] = compound: O=C1NC(=O)C(c2cnc3ccccn23)=C1c1cn2c3c(cc(F)cc13)CN(C(=O)N1CCCCC1)CC2
Outline: as §1

entospletinib = compound: c1cn2cc(-c3ccc4cn[nH]c4c3)nc(Nc3ccc(N4CCOCC4)cc3)c2n1 [entospletinib]
Outline: as §1

Measured: log2 fold change

HMGN5 (UniProt Q5JSK9)
inactive: [1] -0.067 | [2] 0.015

HNRNPH3 (UniProt P31942)
inactive: [1] -0.027 | [2] 0.023 | [3] 0.078 | [4] 0.032 | [5] 0.013

HSP90AB1 (UniProt P08238)
inactive: [1] 0.016 | [2] -0.013 | [3] -0.008 | [4] -0.001 | [5] 0.077

HSD17B10 (UniProt Q99714)
inactive: [1] -0.006 | [2] 0.062 | [3] 0.03 | [4] 0.022 | [5] 0.003

HM13 (UniProt Q8TCT9)
inactive: [1] -0.036 | [2] 0.047 | [3] 0.018 | [4] -0.044 | [5] -0.133

HPF1 (UniProt Q9NWY4)
inactive: [1] -0.013 | [2] 0.024 | [3] 0.031 | [4] 0.017 | [5] 0.038

HNRNPUL1 (UniProt Q9BUJ2)
inactive: [1] 0.043 | [2] -0.022 | [3] -0.028 | [4] -0.003 | [5] -0.006

HNRNPL, A0A3B3ITJ4
inactive: [1] -0.063 | [2] -0.011

HJURP (UniProt Q8NCD3)
inactive: [1] -0.062 | [2] 0.042 | [3] -0.123 | [4] -0.212

HIVEP1 (UniProt P15822)
inactive: erlotinib -0.006 | [6] -0.183 | [7] 0.08 | [8] -0.065 | [9] 0.183 | [10] 0.024 | [11] -0.103 | [12] 0.14 | IRAK-1-4 Inhibitor I 0.102 | ralimetinib -0.106 | [13] 0.201 | [14] 0.041 | [15] 0.068 | [16] 0.01 | [3] -0.001 | vemurafenib 0.018 | [17] -0.106 | [18] -0.076 | sotrastaurin 0.073 | Tubastatin A -0.053 | [19] 0.045 | defactinib 0.004 | encorafenib -0.085 | [20] -0.016 | crizotinib -0.051 | tozasertib 0.098 | doramapimod 0.024 | quisinostat -0.067 | [21] 0.057 | [22] 0.023 | [23] -0.021 | vorinostat 0.025 | silmitasertib -0.046 | [24] -0.012 | entospletinib 0.158

HMG20A (UniProt Q9NP66)
inactive: [1] 0.063 | [2] 0.05 | [3] -0.04 | [4] -0.046 | [5] -0.004

HIST2H2BC (UniProt Q6DN03)
inactive: [1] -0.03 | [2] 0.065 | [3] 0.014 | [4] 0.003 | [5] 0.165

HNRNPAB isoform 3 (UniProt Q99729)
inactive: [1] -0.015 | [2] 0.023 | [3] -0.025 | [4] 0.01 | [5] -0.069

HIP1 (UniProt O00291)
inactive: [1] 0.004 | [2] 0.023 | [3] 0.047 | [4] -0.067 | [5] -0.039

HECTD4 (UniProt J3KPF0)
inactive: [1] -0.013 | [2] 0.023 | [3] 0.068 | [4] -0.03 | [5] 0.043

HIST2H2BF isoform 2 (UniProt Q5QNW6)
inactive: [1] -0.027 | [2] 0.015 | [3] -0.041 | [4] 0.122 | [5] 0.068

HELZ (UniProt P42694)
inactive: [1] -0.081 | [2] 0 | [3] 0.005 | [4] 0.066 | [5] -0.047

HNRNPU (UniProt Q00839)
inactive: [1] -0.012 | [2] -0.01 | [3] -0.019 | [4] 0.012 | [5] 0.068

HNRNPR isoform 2 (UniProt O43390)
inactive: [1] 0.009 | [2] 0.004 | [3] -0.014 | [4] 0.039 | [5] 0.031

HMGB1 (UniProt P09429)
inactive: [1] 0.053 | [2] -0.048 | [3] 0.032 | [4] 0.056 | [5] 0.115

HNRNPM (UniProt P52272)
inactive: [1] -0.099 | [2] 0.034 | [3] 0.041 | [4] -0.025 | [5] 0.014

2 neighbouring entries out of the list so far:
HNRNPAB isoform 3 (UniProt Q99729)
inactive: [1] -0.015 | [2] 0.023 | [3] -0.025 | [4] 0.01 | [5] -0.069

HIP1 (UniProt O00291)
inactive: [1] 0.004 | [2] 0.023 | [3] 0.047 | [4] -0.067 | [5] -0.039

Next part.

HINT1 (UniProt P49773)
inactive: [1] -0.033 | [2] -0.101 | [3] 0.001 | [4] 0.03 | [5] -0.068
